# PubChem BioAssay AID1259331, Drosophila RNAi Screening Center, 2017
# Aim: 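Knock-downs that alter ATP level after a high zinc chloride dose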 (primary screen)
# Cells: Drosophila S2R+ cells
# Knock-down reagent: long dsRNA against Drosophila genes
# Duration: 5 days (4 days knock-down, then 1 day zinc)
# Challenge: zinc chloride at 15 mM final level for 1 day
# Detection: 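Luminescent ATP assay standing in for viability; Z score is the mean over three replicate plates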
# Direction: mean Z score: higher = more ATP than other wells, better survival under zinc; ATP luminescence: higher = more ATP, more viable cells
# Hit rule: 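a reagent is called a hit when its Z score is above 1.5 or below -1.5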
# Calls: active = hit, ATP up or down; inactive = not a hit
# The whole screen tested about 3,100 reagents; below is a part drawn at random. 126 of them (4.1%) were called active. 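Calls are per reagent; zinc was so toxic that few knock-downs lowered ATP further, so most hits raise ATP.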 The raw values are shown without normalisation. Reagents against one gene are numbered here. A plus sign joins genes that one reagent is predicted to hit. Reagent sequences are not shown. The record does not give: the amount of reagent.
gene,reagent no.,mean Z score,"ATP luminescence, replicate 1","ATP luminescence, replicate 2",call
CG14856 (GeneID 41790),1,-0.272,36199,52452,inactive
CG5646 (GeneID 43311),1,-0.3,42262,42336,inactive
CG5646 (GeneID 43311),2,0.306,68364,63822,inactive
rpk (GeneID 40580),1,-0.0971,46366,46777,inactive
Irk2 (GeneID 42770),1,-0.487,38244,42011,inactive
Irk2 (GeneID 42770),2,-0.0539,61643,62227,inactive
Vha16-3 (GeneID 317846),1,0.684,86989,70392,inactive
Vha16-3 (GeneID 317846),2,0.775,65948,58594,inactive
NaCP60E (GeneID 37981),1,-0.133,35805,27079,inactive
NaCP60E (GeneID 37981),2,-0.322,46194,50086,inactive
Cad96Cb (GeneID 43033),1,1.09,44514,78517,inactive
Cad96Cb (GeneID 43033),2,-0.0454,45731,40965,inactive
Cad96Cb (GeneID 43033),3,0.292,68709,63016,inactive
Sec61alpha (GeneID 33905),1,0.358,60392,62210,inactive
18w (GeneID 37277),1,0.271,53018,78343,inactive
rdog (GeneID 43450),1,-1.78,25240,25829,active
rdog (GeneID 43450),2,-1.84,33524,31039,active
Sdr (GeneID 41809),1,-0.292,41413,41222,inactive
Sdr (GeneID 41809),2,-0.183,46805,41633,inactive
Sdr (GeneID 41809),3,0.61,48097,72362,inactive
Ir56c (GeneID 37251),1,-0.861,54047,57734,inactive
Ir56c (GeneID 37251),2,-0.698,41102,55676,inactive
mtt (GeneID 35832),1,0.851,52538,51441,inactive
mtt (GeneID 35832),2,-0.144,35445,42628,inactive
mtt (GeneID 35832),3,-0.414,63599,68384,inactive
Octbeta2R (GeneID 41549),1,0.103,43537,44669,inactive
Octbeta2R (GeneID 41549),2,-0.273,36987,58594,inactive
Octbeta2R (GeneID 41549),3,2.61,96584,1.07e5,active
CG14778 (GeneID 31100),1,-0.766,51578,55145,inactive
CG14778 (GeneID 31100),2,-0.246,53241,58746,inactive
PGRP-LA (GeneID 39062),1,-0.216,69361,59500,inactive
PGRP-LA (GeneID 39062),2,2.08,68399,70201,active
Gr36c (GeneID 117486),1,-0.112,52144,35942,inactive
Gr36c (GeneID 117486),2,0.475,63187,62861,inactive
Mdr65 (GeneID 38726),1,0.179,75364,69944,inactive
Gr39b (GeneID 117347),1,0.0103,64096,58040,inactive
Gr39b (GeneID 117347),2,-0.11,62405,57374,inactive
G6P (GeneID 33476),1,-0.513,41325,40811,inactive
G6P (GeneID 33476),2,-0.497,44685,53364,inactive
CG30265 (GeneID 37622),1,0.342,52504,52220,inactive
5-HT7 (GeneID 43669),1,-0.503,39127,39765,inactive
5-HT7 (GeneID 43669),2,0.352,59757,58368,inactive
side-VIII (GeneID 37310),1,0.508,52036,54750,inactive
side-VIII (GeneID 37310),2,-0.0749,59380,61112,inactive
Coq2 (GeneID 40988),1,-0.0116,59294,63170,inactive
Coq2 (GeneID 40988),2,0.391,58694,55632,inactive
Trp1 (GeneID 34333),1,0.841,63462,40519,inactive
Trp1 (GeneID 34333),2,-0.148,51216,54064,inactive
Stt3B (GeneID 43005),1,0.491,39165,62415,inactive
Stt3B (GeneID 43005),2,-0.259,61369,55813,inactive
CG32512 (GeneID 33085),1,-0.0565,67903,62261,inactive
CG32512 (GeneID 33085),2,0.0856,47823,51235,inactive
TkR86C (GeneID 41286),1,-0.243,38548,54253,inactive
SdhD (GeneID 42808),1,-0.0756,34193,55813,inactive
SdhD (GeneID 42808),2,0.0222,56225,56859,inactive
acs (GeneID 38264),1,-0.647,58248,59329,inactive
acs (GeneID 38264),2,-0.659,41258,49880,inactive
Gle1 (GeneID 35849),1,0.135,30383,34159,inactive
Gle1 (GeneID 35849),2,0.772,59157,57185,inactive
CG14855 (GeneID 41789),1,0.868,44360,61318,inactive
CG14855 (GeneID 41789),2,-0.259,48947,43828,inactive
VhaPPA1-1 (GeneID 45247),1,0.65,52384,57538,inactive
VhaPPA1-1 (GeneID 45247),2,1.72,80544,76102,active
OtopLa (GeneID 8674066),1,-0.12,47942,44960,inactive
OtopLa (GeneID 8674066),2,0.206,53756,48358,inactive
Ir7e (GeneID 7354417),1,-0.0065,49846,38753,inactive
Trpgamma (GeneID 34991),1,-0.201,45577,40879,inactive
Trpgamma (GeneID 34991),2,0.298,57700,63324,inactive
PIG-Wb (GeneID 38220),1,-0.155,67509,68538,inactive
robo3 (GeneID 33314),1,-0.706,38197,36079,inactive
robo3 (GeneID 33314),2,-0.385,39250,41171,inactive
CG1636 + CG15343,1,-0.533,55830,44375,inactive
Ca-alpha1D (GeneID 34950),1,-0.104,50909,58849,inactive
Ca-alpha1D (GeneID 34950),2,-0.0628,59432,57477,inactive
CG4480 (GeneID 34864),1,0.375,55529,39970,inactive
CG3603 (GeneID 31289),1,-0.565,57442,55916,inactive
CG3603 (GeneID 31289),2,1.13,71361,73042,inactive
CG43795 (GeneID 5740629),1,-0.434,45903,36199,inactive
CG43795 (GeneID 5740629),2,-1.13,35102,40913,inactive
CG43795 (GeneID 5740629),3,0.132,73319,52281,inactive
ACXC (GeneID 34689),1,0.468,61198,38764,inactive
sll (GeneID 42115),1,0.531,48817,54133,inactive
sll (GeneID 42115),2,0.272,50995,51218,inactive
wgn (GeneID 32849),1,-0.431,40553,37485,inactive
wgn (GeneID 32849),2,0.864,74747,73631,inactive
HisCl1 (GeneID 41426),1,-0.508,40982,41222,inactive
CG8112 (GeneID 41033),1,0.426,37605,63479,inactive
CG8112 (GeneID 41033),2,-0.147,50618,47411,inactive

Entries above whose target name starts with P or p (3):
gene,reagent no.,mean Z score,"ATP luminescence, replicate 1","ATP luminescence, replicate 2",call
PGRP-LA (GeneID 39062),1,-0.216,69361,59500,inactive
PGRP-LA (GeneID 39062),2,2.08,68399,70201,active
PIG-Wb (GeneID 38220),1,-0.155,67509,68538,inactive
